From PubChem BioAssay AID463204 (Broad Institute, 2010) come the findings set out here.

The list shows a part of the results. Results with a measured potency or affinity are listed apart. The source made no clear call on entries shown without one.

The assay is described as follows: growth rescue of Mot1-301 ts yeast, confirmation, SUMOylation pathway inhibitor project, whole organism, S. cerevisiae, Mot1-301 ts mutant, luminescence, dose retest (AID 463204). As to conditions: S. cerevisiae Mot1-301 ts growth rescue, BacTiter-Glo ATP luminescence; at 42 µM (top of the series).
With `COc1ccc2c(c1)OC[C@H]1[C@H]2N2C(=O)c3cc(Br)ccc3NC(=O)[C@@]2(C)[C@H]1c1ccccc1`, the growth rescue activation stood at 100%. The value for `C[C@@]12C(=O)Nc3ccc(Br)cc3C(=O)N1[C@H]1c3ccccc3OC[C@@H]1[C@@H]2c1ccccc1` was 23.4%.

Compound `O=C(Nc1ccc(Cl)cc1Cl)c1cccc(N2C(=O)C=CC2=O)c1` came in with a growth rescue activation of 2.62%.
